Here are results for one molecule from US20210388105A1.

In assay [1] the target is ENTPD6 protein. Nature of the assay: ELISA on coated ENTPD6 protein, anti-hIgG-HRP, OD450.
In assay [2] the target is ENTPD6 protein. Description: ELISA, coated protein.

These are yes or no findings as the source states them, for the method shown.

B1: hu23.H5L5 (antibody, V domains shown)
VH: QVQLVQSGAEVKKPGASVKVSCKASGYNLKDTFLHWVRQAPGQGLEWMGRIDPANGNIKYDPKFQGRVTITADTSANTAYMELISLRSEDTAVYYCANSPYYYGSGYRIFDVWGQGTTVTVSS
VL: QIVLTQSPATLSLSPGERATLSCSAFSSVNYMHWYQQKPGQAPRLLIYTTSNLASGIPTRFSGSGSGTSYTLTISSLEPEDFAVYYCQQRSTYPFTFGQGTKLEIK
B1: the binding result in assay [1] is reported as “no binding (tested: about 66 nM)”; in assay [2], “no binding”.
